Laboratory results: PubChem BioAssay AID1671195 (Yale University, 2021)
Shown is one part, drawn at random, of about 22,000 deposited reagents. About 1,510 of them (6.9%) were called active. 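Active includes knockdowns raising or lowering LDL uptake; positive z-scores mean more uptake, negative mean less.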 A number with no mark means an inactive call.

- Aim: 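Regulators of LDL receptor activity judged by labelled LDL uptake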 (primary screen)
- Cell system: human Huh7 hepatoma cells
- Reagents: siRNA pool against human genes, 18 nM
- Time to read-out: about 2 to 2.5 days of knockdown, then 8 h LDL uptake
- Conditions: DiI-labelled LDL at 30 µg/ml for 8 h, in lipoprotein-deficient serum medium
- Detection: 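Per-cell DiI-LDL intensity by automated imaging; well means scaled to the plate median and given as a robust z-score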
- Direction: robust z-score: higher = more LDL uptake after knockdown
- Active means: 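Active when two or more replicates show a robust z-score above 2 or below -2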

no.	gene knocked down	PubChem SID	robust z-score, replicate 1	robust z-score, replicate 2	robust z-score, replicate 3
1	MIR3150BHG	SID442884851	1.88	1.51	2.12
2	LOC387873 (retired record)	SID442885825	1.71	0.967	1.39
3	CFAP144P1	SID442897771	-0.539	-0.44	-0.289
4	GLS2	SID442896739	-1.25	0.17	0.159
5	GIN1	SID442884207	2.07 (active)	0.782	2.28
6	NEURL2	SID442894214	-0.378	0.291	-0.0323
7	RPL27	SID442901639	-0.931	-1.33	-0.532
8	IRAG1	SID442893175	0.326	0.595	-0.681
9	CLEC11A	SID442885641	1.27	0.962	2.04
10	DDX54	SID442895052	-0.312	0.117	-0.191
11	ABCC1	SID442883911	3.12 (active)	2.55	0.809
12	BAG6	SID442885360	1.49	1.45	1.7
13	CREBZF	SID442886844	0.862	1.47	0.822
14	LOC440171 (retired record)	SID442904554	-1.66	-2.03	-1.44
15	IL6	SID442894943	-0.316	-0.263	0.231
16	LOC389638 (retired record)	SID442887330	1.36	0.817	0.636
17	LOC387702 (retired record)	SID442897251	0.0768	-0.624	-0.547
18	TFAP2E	SID442891226	0.392	0.248	0.304
19	UACA	SID442896391	-0.019	-1.04	0.26
20	NME5	SID442900802	-1.03	-0.0788	-1.32
21	SLC34A3	SID442886040	0.406	1.41	2.04
22	PHETA2	SID442885233	1.77	1.24	1.82
23	ADAD2	SID442891380	1.02	0.0498	-0.192
24	VEGFC	SID442888131	1.85	0.15	0.341
25	AAR2	SID442892086	1.18	0.117	-0.671
26	N4BP2L1	SID442885009	1.52	1.06	2.6
27	TM4SF19	SID442903467	-1.34	-1.35	-1.22
28	HAUS5	SID442894154	0.854	-0.874	-0.0761
29	RIPOR3	SID442890474	0.654	0.164	0.421
30	RIPOR3	SID442890827	-0.0262	0.759	0.362
31	WAC-AS1	SID442901272	-0.731	-1.03	-0.863
32	CERKL	SID442888645	0.622	0.455	0.979
33	COL12A1	SID442891437	0.262	0.301	0.298
34	ZFR	SID442892029	0.249	-0.209	0.613
35	DR1	SID442888642	1.61	-0.0537	0.496
36	ABHD12	SID442904658	-2.39	-1.53	-1.43
37	MDP1	SID442895528	-0.306	-0.512	0.283
38	MRPS35	SID442901051	-0.68	-0.878	-0.975
39	HSD3B7	SID442894984	0.269	-0.747	0.116
40	H2BC14	SID442894508	-0.455	0.0341	0.208
41	FLJ12120 (retired record)	SID442901961	-0.97	-0.715	-1.28
42	NDRG4	SID442883224	3.88 (active)	4.15	3.31
43	STAG3L1	SID442900537	-0.905	-0.99	-0.424
44	LOC441215 (retired record)	SID442903461	-1.17	-1.31	-1.42
45	IL18R1	SID442888109	0.773	0.781	0.792
46	PAQR4	SID442885371	1.45	1.48	1.68
